Results taken from PubChem BioAssay AID1487 (National Center for Advancing Translational Sciences (NCATS), 2009).
Where “and” joins values, the source holds several entries; their conditions need not be identical. Equal values may be shown once. Some of the results follow. The main result of the screen is listed elsewhere. These columns were measured beside it and carry no call. Most of these compounds were active or inconclusive in the main read-out, so they are no random draw. The note in brackets gives the kind of curve behind each potency; many fits are weak.

Test: qHTS Assay for Modulators of Lamin A Splicing
Details: HeLa LMNA splicing GFP/RFP minigene ratio, 48 h
Outline: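 Read-out is the ratio of GFP to DsRed2 object intensity, acquired by 488 nm laser-scanning cytometry on HeLa lamin A-EGFP minigene reporter cells. Compound incubation 48 hrs at 37 °C in Opti-MEM with 2% FBS; DMSO 0.5% final.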

[1] = measured here: RFP viability control channel
[2] = measured here: GFP splicing reporter channel

Row | Structure (SMILES) | AC50 [1] | AC50 [2]
1 | Clc1cccc(CSc2nnc(-c3c[nH]c4ccccc34)o2)c1 | 35.5 µM [rising, single point] | –
2 | COc1ccccc1C(=O)N/C(N)=N/c1nc2ccccc2o1 | 11.2 µM [falling, partial curve] | 14.1 µM [falling, single point]
3 | Cc1cc(Nc2cccc(Cl)c2)nc2ccc(NC(=O)c3cncc(Br)c3)cc12 | 10 µM [falling, partial curve] | 11.2 µM [falling, partial curve]
4 | O=S(=O)(/N=C(\c1ccccc1F)N1CCCCC1)c1ccccc1 | 12.6 µM [falling, partial curve] | –
5 | Cc1ccc(C2Nc3ccc4ccccc4c3C3=C2C(=O)CC(C)(C)C3)o1 (configuration not stated) | 14.1 µM [rising, partial curve, poor fit] | –
6 | O=C(N=Nc1c(O)[nH]c2ccc(Br)cc12)c1ccccc1-n1cccc1 | 7.08 µM [rising, partial curve] | 35.5 µM [rising, single point]
7 | COc1ccc(-c2cc(C(=O)NC3=NCCS3)c3ccccc3n2)cc1OC | – | 2 µM [falling, partial curve]
8 | O=C(NC1CCCCCC1)C1CCN(c2nc3ccccc3o2)CC1 | 7.08 µM [rising, full curve] | –
9 | COC(=O)c1cccc(NC2=NS(=O)(=O)c3ccccc32)c1 | 0.01 µM [rising, full curve, poor fit] | 0.00316 µM [rising, full curve, poor fit]
10 | CCn1c(SCc2c(F)cccc2Cl)nc(=O)c2c(C(=O)OC)cc(C3CC3)nc21 | 35.5 µM [falling, single point] | 31.6 µM [falling, single point]
11 | CCC1CCCCN1S(=O)(=O)c1ccc(S(=O)(=O)N(Cc2ccccn2)CC2CCCO2)cc1 (configuration not stated) | 22.4 µM [rising, single point] | –
12 | OCC(O)C(O)C(O)C(O)CO (configuration not stated) | 15.8 µM [falling, single point] and 1 µM [falling, single point] | 31.6 µM [falling, single point]
13 | CN1CCN(C(=O)C2CCN(c3ncc(C(F)(F)F)cc3Cl)CC2)CC1 | 35.5 µM [falling, single point] | –
14 | Cc1nn(CC(=O)Nc2ccc(OC(F)(F)F)cc2)c(=O)c2c(C)n(-c3ccc(Cl)cc3)nc12 | 0.0398 µM [rising, full curve, poor fit] | 0.282 µM [rising, full curve, poor fit]
15 | CN1CCN(c2ncc3nc(-c4ccccc4)c(=O)n(CCc4ccccc4)c3n2)CC1 | 22.4 µM [falling, partial curve] | 20 µM [falling, partial curve, poor fit]
16 | COc1ccc(CNC(C)C2COc3ccccc3O2)c(OC)c1 (configuration not stated) | 12.6 µM [rising, single point] | 14.1 µM [rising, single point]
17 | O=S(=O)(Nc1cccc(-c2cn3cccnc3n2)c1)c1ccc(Cl)cc1 | 17.8 µM [rising, single point] | –
18 | CCOc1ccc(-c2ccc(/C=C3/C(=N)N4C(C)=CSC4=NC3=O)o2)c([N+](=O)[O-])c1 | 15.8 µM [rising, single point] | –
19 | O=C(NCC1COc2ccccc2O1)C1C2C=CC3(CN(Cc4ccccc4Cl)C(=O)C13)O2 (configuration not stated) | 14.1 µM [rising, single point] | –
20 | O=C(c1cc2ccccc2oc1=O)N(Cc1ccc2c(c1)OCO2)Cc1ccco1 | 12.6 µM [rising, single point] | 14.1 µM [rising, single point]
21 | Cc1n[nH]c(C)c1CCc1nc2c3ccccc3nc(SCC(N)=O)n2n1 | 12.6 µM [rising, single point] | –
22 | CCOCCCNC(=O)c1ccc(-n2c(-c3ccccc3)cc3c2CCC(C)C3)cc1 (configuration not stated) | 35.5 µM [falling, single point] | –
23 | COc1ccc(-c2csc3ncnc(Nc4cccc(OC)c4)c23)cc1 | – | 0.708 µM [falling, full curve]
24 | O=C(NCC(c1cccs1)N1CCOCC1)c1ccccc1NS(=O)(=O)c1ccc(Cl)c([N+](=O)[O-])c1 (configuration not stated) | 11.2 µM [rising, partial curve] | –
25 | CCOC(=O)CSc1ccccn1 | 0.355 µM [rising, partial curve, poor fit] | 4.47 µM [rising, partial curve, poor fit]
26 | Cc1ccc(NC(=O)c2ccccc2O)cc1 | 28.2 µM [rising, single point] | –

One compound at a time (already shown). Order of values: AC50 [1] | AC50 [2]
`O=C(N=Nc1c(O)[nH]c2ccc(Br)cc12)c1ccccc1-n1cccc1` as listed: 7.08 µM [rising, partial curve] | 35.5 µM [rising, single point]
`CCOC(=O)CSc1ccccn1` as listed: 0.355 µM [rising, partial curve, poor fit] | 4.47 µM [rising, partial curve, poor fit]
